According to article PMC11955804 (Chemical Science, 2025):

Assay: general procedure: Fmoc solid-phase peptide synthesis; Rink Amide; Oxyma/DIC
Conditions: whole synthesis, 220 nm
With “PEPTIDE1{G.H.G.A.Y.G.H.G.A.Y.G.H.G.A.Y.G.H.G.A.Y.[am]}$$$$V2.0” the “final HPLC purity” value was 85%. In the case of “PEPTIDE1{G.H.G.F.Y.G.H.G.F.Y.G.H.G.F.Y.G.H.G.F.Y.[am]}$$$$V2.0”, the “final HPLC purity” value is reported as 87%. With “PEPTIDE1{G.H.G.I.Y.G.H.G.I.Y.G.H.G.I.Y.G.H.G.I.Y.[am]}$$$$V2.0” the “final HPLC purity” value was 98%. With “PEPTIDE1{G.H.G.N.Y.G.H.G.N.Y.G.H.G.N.Y.G.H.G.N.Y.[am]}$$$$V2.0” the “final HPLC purity” value was 92%.

Strings that start with PEPTIDE1 are HELM notation: dots part the residues, brackets hold end groups and non-standard residues.
